Laboratory results: paper PMC4866825, “The GIRK1 subunit potentiates G protein activation of cardiac GIRK1/4 hetero-tetramers” (eLife, 2016)
Results are given in words; binding and its absence hold for the method and conditions named. Some results given as binding are weak or reduced against the parent protein; the word gives no strength. Tags and fused reporters may be left off the sequences shown.

Target: T1, GIRK1(N217D) with C-terminal PreScission site, eGFP and deca-histidine tag (human) (UniProt P48549)
T1 sequence: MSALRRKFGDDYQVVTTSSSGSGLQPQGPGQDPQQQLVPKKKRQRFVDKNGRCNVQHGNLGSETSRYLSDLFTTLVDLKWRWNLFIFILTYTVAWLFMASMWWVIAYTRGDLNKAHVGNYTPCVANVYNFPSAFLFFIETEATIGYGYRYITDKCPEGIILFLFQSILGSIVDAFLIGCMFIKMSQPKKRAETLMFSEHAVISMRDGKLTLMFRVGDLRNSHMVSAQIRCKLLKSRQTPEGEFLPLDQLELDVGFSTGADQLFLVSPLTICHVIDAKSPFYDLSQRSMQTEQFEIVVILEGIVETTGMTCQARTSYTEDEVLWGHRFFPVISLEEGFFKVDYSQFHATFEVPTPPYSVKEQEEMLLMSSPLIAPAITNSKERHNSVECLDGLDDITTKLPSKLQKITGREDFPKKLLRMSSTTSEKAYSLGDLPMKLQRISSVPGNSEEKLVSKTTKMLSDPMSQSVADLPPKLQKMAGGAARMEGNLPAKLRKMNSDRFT
Assay: sequential affinity chromatography (co-purification); GIRK1-His and GIRK4-1D4 co-expressed in HEK293S GnTI- cells, solubilized in 4% DM; Talon Co2+ resin (His10 on GIRK1), eluted with 200 mM imidazole, then 1D4 affinity resin (1D4 tag on GIRK4); buffer A: 50 mM HEPES-KOH pH 7.0, 150 mM KCl, 0.4% DM; 4°C

binding: binds
B1: GIRK4-1D4 (human full-length GIRK4 with C-terminal PreScission site, eGFP and 1D4 peptide tag) (natural protein, UniProt P48544 1-419, looked up)
chain: MAGDSRNAMNQDMEIGVTPWDPKKIPKQARDYVPIATDRTRLLAEGKKPRQRYMEKSGKCNVHHGNVQETYRYLSDLFTTLVDLKWRFNLLVFTMVYTVTWLFFGFIWWLIAYIRGDLDHVGDQEWIPCVENLSGFVSAFLFSIETETTIGYGFRVITEKCPEGIILLLVQAILGSIVNAFMVGCMFVKISQPKKRAETLMFSNNAVISMRDEKLCLMFRVGDLRNSHIVEASIRAKLIKSRQTKEGEFIPLNQTDINVGFDTGDDRLFLVSPLIISHEINQKSPFWEMSQAQLHQEEFEVVVILEGMVEATGMTCQARSSYMDTEVLWGHRFTPVLTLEKGFYEVDYNTFHDTYETNTPSCCAKELAEMKREGRLLQYLPSPPLLGGCAEAGLDAEAEQNEEDEPKGLGGSREARGSV
notes: G protein gated inward rectifier K+ channel subunit GIRK4, human, full length; also called 1D4-tagged GIRK4; GIRK4 subunit; source: HEK293S GnTI- cells, BacMam transduced together with GIRK1-His (1:1), solubilized in DM; not shown: eGFP, C-terminal, kept; 1D4 peptide, C-terminal, kept
